Results as given in publication PMC4269173.
For at least one entry, the source does not settle the construct or the ends of the probe. For some assays here: Negatives hold for the conditions tested. For some assays here: At least one verdict rests on a figure or table, not on a statement of the authors.

test system: RIN (tomato); test: competition with a labelled probe; conditions: 1000-fold excess unlabeled; 10 mM Tris-HCl pH 7.2, 50 mM KCl, 1 mM DTT, 2.5% glycerol, 0.05% NP-40, 50 ng/uL poly(dI-dC), room temperature, 20 min + 20 min; 6% native PAGE; recombinant protein; protein details: N-terminal His-tag (pET-30a)

Row | Sequence | binding result
1 | TATTCACTAAAAAAAATTGAGTGAAA (double strand) [SlUBC6-mt1] | no binding
2 | TTGTGGAACTACAAGATGTAGATTAT (double strand) [SlUBC42-mt2] | no binding
3 | TATTCACTCAACAAGATGGAGTGAAA (double strand) [SlUBC6-mt2] | no binding
4 | TTTTAACTAAATAATTTTACGAAAAG (double strand) [SlUBC8-mt1] | no binding
5 | TATATTAACAACTAGTTGTTTTTGGG (double strand) [SlUBC24-mt2] | no binding
6 | AGACAAAACAACAAGAAGTAATATTT (double strand) [SlUBC41-mt2] | no binding
7 | AGACAAAAAAAAAAAAATTAATATTT (double strand) [SlUBC41-mt1] | no binding
8 | TTGTGGAAATAAAATATTTAGATTAT (double strand) [SlUBC42-mt1] | no binding
9 | TTTTAACTCAACAAGTTGACGAAAAG (double strand) [SlUBC8-mt2] | no binding
10 | TATATTAAAAATTAATTTTTTTTGGG (double strand) [SlUBC24-mt1] | no binding

test system: RIN (tomato); test: EMSA; conditions: 10 mM Tris-HCl pH 7.2, 50 mM KCl, 1 mM DTT, 2.5% glycerol, 0.05% NP-40, 50 ng/uL poly(dI-dC), room temperature, 20 min + 20 min; 6% native PAGE; recombinant protein; protein details: N-terminal His-tag (pET-30a); label: 3' biotin (probe)

Row | Sequence | binding result
11 | AAAGTAAACAAAAAATAGTTACGAAG (double strand) [SlUBC32-wt] | binds
12 | TTGTGGAACTAAAATATGTAGATTAT (double strand) [SlUBC42-wt] | binds
13 | TATATTAACAATTAATTGTTTTTGGG (double strand) [SlUBC24-wt] | binds
14 | TTTTGTTACTAATTTTTGAGGGATAT (double strand) [PSMD2-wt] | binds
15 | TATTCACTCAAAAAAATGGAGTGAAA (double strand) [SlUBC6-wt] | binds
16 | AGACAAAACAAAAAAAAGTAATATTT (double strand) [SlUBC41-wt] | binds
17 | TTTTAACTCAATAATTTGACGAAAAG (double strand) [SlUBC8-wt] | binds
